The list shows only some results of the screen, not a fair sample: it gathers tests that were run many times, whatever their T/C, doses with no T/C, and many T/C values between a quarter and a half above the control. Other doses and runs of a compound stand elsewhere. T/C: endpoint of the treated group in % of that of the vehicle group. Schedule codes are those of the source, read here as Q, the interval in days (D) or hours (H), X, the number of doses. Some entries hold several experiments; the values are given in rising order. Some T/C values are followed by the survivors on the day toxicity was checked, most often the fifth; where none is given, no animal had died by that day. Some entries give survivors of the animals treated and no T/C: the source files T/C as zero there, which appears to mark a toxic dose or a test without result, not a measured value. Survivors were counted at the toxicity check, usually on the fifth day, unless a day is given; later deaths do not show. Some structures stand for samples that the source files as different forms (salt, stereo form or complex); doses refer to the form tested.
Test system: CD8F1 mice, subcutaneous mammary adenocarcinoma, T/C%
Test: NCI In Vivo Anticancer Drug Screen. Data for tumor model Mammary Adenocarcinoma CD8F1 (subcutaneous) in CD8F1
Details: higher T/C = larger tumour
How it was run: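 Compound-treated versus vehicle-treated mice with transplantable tumors; survival or tumor size compared as T/C.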

[1] = T/C endpoint: median tumor weight change, dose: 500.0 mg/kg/injection, schedule: Q01DX001 (ip), vehicle: Klucel (hydroxypropylcellulose) (HPC)
[2] = T/C endpoint: median tumor weight change, dose: 1000.0 mg/kg/injection, schedule: Q01DX001 (ip), vehicle: Klucel (hydroxypropylcellulose) (HPC)
[3] = T/C endpoint: median tumor weight change, dose: 2000.0 mg/kg/injection, schedule: Q01DX001 (ip), vehicle: Klucel (hydroxypropylcellulose) (HPC)

CC[C@H]1CN2CCc3cc(OC)c(OC)cc3[C@@H]2C[C@@H]1C[C@H]1NCCc2cc(OC)c(OC)cc21
T/C (T/C endpoint: mean tumor weight, dose: 0.88 mg/kg/injection, schedule: Q07DX005 (ip), vehicle: saline, evaluated on day 31): 135 % of control
T/C (T/C endpoint: median tumor weight (est.), dose: 14.0 mg/kg/injection, schedule: Q07DX005 (ip), vehicle: saline, evaluated on day 30): 146 % of control

CC1=CC(=Nc2ccc(N(CCCl)CCCl)cc2)C=C(C)C1=O
survivor count (T/C endpoint: median tumor weight (est.), dose: 100.0 mg/kg/injection, schedule: Q07DX005 (ip), vehicle: Klucel (hydroxypropylcellulose) (HPC)): 3 of 10 on day 30
survivor count (T/C endpoint: median tumor weight (est.), dose: 200.0 mg/kg/injection, schedule: Q07DX005 (ip), vehicle: Klucel (hydroxypropylcellulose) (HPC)): 0 of 10 on day 30

CC1OC(=O)C(C(C)C)NC(=O)C(C(C)C)OC(=O)C(C(C)C)NC(=O)C(C)OC(=O)C(C(C)C)NC(=O)C(C(C)C)OC(=O)C(C(C)C)NC(=O)C(C)OC(=O)C(C(C)C)NC(=O)C(C(C)C)OC(=O)C(C(C)C)NC1=O (stereo not given)
survivor count (T/C endpoint: median tumor weight (est.), dose: 40.0 mg/kg/injection, schedule: Q07DX005 (ip), vehicle: saline with Tween-80): 0 of 10 on day 30

CN1CCN(CN2C(=O)C3C4C=CC(C3C2=O)C2C3C(=O)N(CN5CCN(C)CC5)C(=O)C3C42)CC1 (stereo not given)
survivor count (T/C endpoint: median tumor weight change, dose: 115.0 mg/kg/injection, schedule: Q01DX005 (ip), vehicle: water): 6 of 10 on day 31
survivor count (T/C endpoint: median tumor weight change, dose: 180.0 mg/kg/injection, schedule: Q01DX001 (ip), vehicle: water): 2 of 10 on day 25
survivor count (T/C endpoint: median tumor weight change, dose: 206.5 mg/kg/injection, schedule: Q01DX001 (ip), vehicle: water): 0 of 10 on day 25
survivor count (T/C endpoint: median tumor weight change, dose: 300.0 mg/kg/injection, schedule: Q01DX001 (ip), vehicle: water): 6 of 10 on day 25
survivor count (T/C endpoint: median tumor weight change, dose: 344.2 mg/kg/injection, schedule: Q01DX001 (ip), vehicle: water): 0 of 10 on day 25
survivor count (T/C endpoint: median tumor weight change, dose: 500.0 mg/kg/injection, schedule: Q01DX001 (ip), vehicle: water): 2 of 10 on day 25
survivor count (T/C endpoint: median tumor weight change, dose: 573.8 mg/kg/injection, schedule: Q01DX001 (ip), vehicle: water): 0 of 10 on day 25
survivor count (T/C endpoint: median tumor weight change, dose: 833.3 mg/kg/injection, schedule: Q01DX001 (ip), vehicle: water): 0 of 10 on day 25
survivor count (T/C endpoint: median tumor weight change, dose: 956.3 mg/kg/injection, schedule: Q01DX001 (ip), vehicle: water): 0 of 10 on day 25

CC(=O)CC(=O)CCC(=O)O
T/C (T/C endpoint: median tumor weight change, dose: 62.5 mg/kg/injection, schedule: Q01DX001 (ip), vehicle: saline, evaluated on day 32): 142 % of control
survivor count (T/C endpoint: median tumor weight change, dose: 500.0 mg/kg/injection, schedule: Q01DX001 (ip), vehicle: saline): 4 of 10 on day 32
survivor count (T/C endpoint: median tumor weight change, dose: 1000.0 mg/kg/injection, schedule: Q01DX001 (ip), vehicle: saline): 0 of 10 on day 32

c1cc(OCC2CO2)ccc1OCC1CO1 (stereo not given)
survivor count [1]: 3 of 10 on day 29
survivor count [2]: 0 of 10 on day 29
survivor count [3]: 0 of 10 on day 29

CCN(CC)CCOC(=O)Cc1cccc2c(=O)cc(-c3ccccc3)oc12
T/C (T/C endpoint: median tumor weight (est.), dose: 12.5 mg/kg/injection, schedule: Q07DX005 (ip), vehicle: saline, evaluated on day 30): 145 and 147 % of control
survivor count (T/C endpoint: median tumor weight (est.), dose: 200.0 mg/kg/injection, schedule: Q07DX005 (ip), vehicle: saline): 2 of 10 on day 30
survivor count (T/C endpoint: median tumor weight (est.), dose: 400.0 mg/kg/injection, schedule: Q07DX005 (ip), vehicle: saline): 0 of 10 on day 30

CC(=O)OC1C(O)C(C)OC(OC2C(OC(=O)C3CCC4C(C3)OC3(CC(OC(=O)/C=C/c5ccccc5)C(C)CO3)C43CO3)OC(C)C(O)C2OC(C)=O)C1O (stereo not given)
T/C (T/C endpoint: median tumor weight change, dose: 20.0 mg/kg/injection, schedule: Q01DX001 (ip), vehicle: distilled water + Tween-80, evaluated on day 34): 128 % of control
survivor count (T/C endpoint: median tumor weight change, dose: 160.0 mg/kg/injection, schedule: Q01DX001 (ip), vehicle: distilled water + Tween-80): 0 of 10 on day 34

O=C(O)c1c2c(nc3ccccc13)Cc1ccccc1-2
survivor count (T/C endpoint: median tumor weight (est.), dose: 400.0 mg/kg/injection, schedule: Q07DX005 (ip), vehicle: Klucel (hydroxypropylcellulose) (HPC)): 1 of 10

C/C(=N\NC(=S)N1CCN(c2ccccn2)CC1)c1ccccn1
T/C (T/C endpoint: median tumor weight change, dose: 6.25 mg/kg/injection, schedule: Q01DX001 (ip), vehicle: other, evaluated on day 26): 128 % of control
survivor count (T/C endpoint: median tumor weight change, dose: 100.0 mg/kg/injection, schedule: Q01DX001 (ip), vehicle: other): 2 of 10 on day 26

CCCCC(=O)OCC(=O)[C@]1(O)Cc2c(O)c3c(c(O)c2[C@@H](OC2CC(NC(=O)C(F)(F)F)C(O)C(C)O2)C1)C(=O)c1c(OC)cccc1C3=O (stereo not given in full)
survivor count (T/C endpoint: median tumor weight change, dose: 450.0 mg/kg/injection, schedule: Q01DX001 (ip), vehicle: clinical formulation): 4 of 10 on day 28 and 5 of 10 on day 29
survivor count (T/C endpoint: median tumor weight change, dose: 600.0 mg/kg/injection, schedule: Q01DX001 (ip), vehicle: clinical formulation): 2 of 10 on day 29

c1ccc(CN2CCOC2)cc1
survivor count (T/C endpoint: median tumor weight (est.), dose: 200.0 mg/kg/injection, schedule: Q07DX005 (ip), vehicle: suspension in saline): 0 of 10 on day 30
survivor count (T/C endpoint: median tumor weight (est.), dose: 400.0 mg/kg/injection, schedule: Q07DX005 (ip), vehicle: suspension in saline): 0 of 10 on day 30

CN(C=O)C(C(=O)Nc1cccc2c(OC(=O)C(N(C)C=O)(N(C)C=O)N(C)C=O)c(N=Nc3ccc(S(=O)(=O)Nc4nccs4)cc3)cc(N=Nc3ccc(S(=O)(=O)Nc4nccs4)cc3)c12)(N(C)C=O)N(C)C=O (tested in a mixture with another compound)
T/C (T/C endpoint: median tumor weight change, dose: 125.0 mg/kg/injection, schedule: Q01DX001 (ip), vehicle: saline with Tween-80, evaluated on day 29): 147 % of control
T/C (T/C endpoint: median tumor weight change, dose: 500.0 mg/kg/injection, schedule: Q01DX001 (ip), vehicle: saline with Tween-80, evaluated on day 29): 139 % of control

COC(=O)Nc1cn2cc(C(=O)c3cccs3)ccc2n1
survivor count [1]: 5 of 10 on day 29
survivor count [2]: 1 of 10 on day 29

Cc1cn(C2CC(O)C(CO)O2)c(=O)[nH]c1=O (stereo not given)
T/C (T/C endpoint: median tumor weight (est.), dose: 100.0 mg/kg/injection, schedule: Q07DX005 (ip), vehicle: saline, evaluated on day 30): 137 % of control [9 of 10 alive]
T/C (T/C endpoint: median tumor weight (est.), dose: 200.0 mg/kg/injection, schedule: Q07DX005 (ip), vehicle: saline, evaluated on day 30): 127 % of control [9 of 10 alive]
T/C (T/C endpoint: median tumor weight (est.), dose: 400.0 mg/kg/injection, schedule: Q07DX005 (ip), vehicle: saline, evaluated on day 30): 131 % of control

NNC(=S)N/N=C/c1ccccn1
survivor count (T/C endpoint: median tumor weight (est.), dose: 100.0 mg/kg/injection, schedule: Q07DX005 (ip), vehicle: saline with Tween-80): 2 of 10 on day 30

CC(C)CCCCCCCCCCCCC(=O)NCC(=O)NC1C(O)C(O)C(Nc2ncnc3nc[nH]c23)OC1C(O)CO (stereo not given)
survivor count (T/C endpoint: median tumor weight (est.), dose: 8.0 mg/kg/injection, schedule: Q07DX005 (ip), vehicle: Klucel (hydroxypropylcellulose) (HPC)): 5 of 10

O=[N+]([O-])c1ccc(-n2[nH]nnc2=S)cc1
T/C (T/C endpoint: median tumor weight change, dose: 250.0 mg/kg/injection, schedule: Q01DX001 (ip), vehicle: saline with Tween-80, evaluated on day 29): 136 % of control
survivor count (T/C endpoint: median tumor weight change, dose: 500.0 mg/kg/injection, schedule: Q01DX001 (ip), vehicle: saline with Tween-80): 1 of 10 on day 29 and 4 of 10 on day 32
survivor count (T/C endpoint: median tumor weight change, dose: 1000.0 mg/kg/injection, schedule: Q01DX001 (ip), vehicle: saline with Tween-80): 0 of 10 on day 29 and 0 of 10 on day 32
survivor count (T/C endpoint: median tumor weight change, dose: 2000.0 mg/kg/injection, schedule: Q01DX001 (ip), vehicle: saline with Tween-80): 0 of 10 on day 29 and 0 of 10 on day 32

CCCCc1ccc2nc(NC(=O)OC)[nH]c2c1
T/C (T/C endpoint: mean tumor weight, dose: 25.0 mg/kg/injection, schedule: Q07DX006 (ip), vehicle: saline with Tween-80, evaluated on day 37): 148 % of control
T/C (T/C endpoint: mean tumor weight, dose: 50.0 mg/kg/injection, schedule: Q07DX006 (ip), vehicle: saline with Tween-80, evaluated on day 37): 137 % of control
survivor count (T/C endpoint: median tumor weight (est.), dose: 400.0 mg/kg/injection, schedule: Q07DX005 (ip), vehicle: saline with Tween-80): 0 of 10 on day 30

CC(C)NCC(O)COc1cccc2ccccc12 (stereo not given)
T/C (T/C endpoint: mean tumor weight, dose: 16.0 mg/kg/injection, schedule: Q07DX007 (ip), vehicle: Klucel (hydroxypropylcellulose) (HPC), evaluated on day 46): 127 % of control [9 of 10 alive]

CN=C(NC#N)NCCSCc1nc[nH]c1C
survivor count [1]: 4 of 10 on day 32
survivor count [2]: 0 of 10 on day 32
survivor count [3]: 0 of 10 on day 32

Cc1ccc(NCCN(C)C)c2c(=O)c3cc(O)ccc3sc12
survivor count [1]: 1 of 10 on day 28
survivor count [2]: 0 of 10 on day 28 and 1 of 10 on day 28
survivor count [3]: 2 of 10 on day 28 and 3 of 10 on day 28

Source: PubChem BioAssay AID220 (DTP/NCI, 2004)
